No constants are given. Whether binding was seen depends on the method and setting.
Target: Recombinant purified His-ECRG4 protein (esophageal carcinoma related gene 4) (human) (UniProt Q9H1Z8)
Test: ELISA; 'binding affinity assay': purified His-ECRG4 coated on 96-well plates (5 ug per well), BSA blocking; whole-cell lysate of EC9706 cells transfected with FLAG-ECRG1 added for 2 h; detection with anti-FLAG or anti-Miz-1 antibody, HRP secondary antibody, absorbance at 490 nm; only the target purified

Sequences of proteins named here, by UniProt entry; tags and fusion partners are left off. A change or cut given only in a name is not applied to a line headed by its entry.
UniProt Q9H1Z8: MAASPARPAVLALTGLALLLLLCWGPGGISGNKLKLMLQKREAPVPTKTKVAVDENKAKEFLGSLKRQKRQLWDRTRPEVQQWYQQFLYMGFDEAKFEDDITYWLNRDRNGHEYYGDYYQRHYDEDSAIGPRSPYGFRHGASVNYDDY

B1: Miz-1 (protein, UniProt Q13105 1-803)
chain: MDFPQHSQHVLEQLNQQRQLGLLCDCTFVVDGVHFKAHKAVLAACSEYFKMLFVDQKDVVHLDISNAAGLGQVLEFMYTAKLSLSPENVDDVLAVATFLQMQDIITACHALKSLAEPATSPGGNAEALATEGGDKRAKEEKVATSTLSRLEQAGRSTPIGPSRDLKEERGGQAQSAASGAEQTEKADAPREPPPVELKPDPTSGMAAAEAEAALSESSEQEMEVEPARKGEEEQKEQEEQEEEGAGPAEVKEEGSQLENGEAPEENENEESAGTDSGQELGSEARGLRSGTYGDRTESKAYGSVIHKCEDCGKEFTHTGNFKRHIRIHTGEKPFSCRECSKAFSDPAACKAHEKTHSPLKPYGCEECGKSYRLISLLNLHKKRHSGEARYRCEDCGKLFTTSGNLKRHQLVHSGEKPYQCDYCGRSFSDPTSKMRHLETHDTDKEHKCPHCDKKFNQVGNLKAHLKIHIADGPLKCRECGKQFTTSGNLKRHLRIHSGEKPYVCIHCQRQFADPGALQRHVRIHTGEKPCQCVMCGKAFTQASSLIAHVRQHTGEKPYVCERCGKRFVQSSQLANHIRHHDNIRPHKCSVCSKAFVNVGDLSKHIIIHTGEKPYLCDKCGRGFNRVDNLRSHVKTVHQGKAGIKILEPEEGSEVSVVTVDDMVTLATEALAATAVTQLTVVPVGAAVTADETEVLKAEISKAVKQVQEEDPNTHILYACDSCGDKFLDANSLAQHVRIHTAQALVMFQTDADFYQQYGPGGTWPAGQVLQAGELVFRPRDGAEGQPALAETSPTAPECPPPAE
Q: How did the binding turn out when B1 was run?
A: The binding was “no binding”.
